{"source": "patent US8236828B2", "about": "“Insecticidal compounds” (Syngenta Crop Protection LLC, priority 2007, dated 2012)", "assay_type_in_all_cases": "in vivo", "key": {"[1]": {"tested_on": "Heliothis virescens (Tobacco Budworm)", "assay": "Heliothis virescens egg test on artificial diet", "details": "application rate 200 ppm (concentration in well 18 ppm), eggs 0-24 h old on artificial diet, egg mortality, larval mortality and growth regulation after 4 days", "protocol": "(§1) This Example illustrates the pesticidal/insecticidal properties of compounds of formula (I). Tests were performed as follows:\n(§2) • Cotton leaf discs were placed on agar in a 24-well microtiter plate and sprayed with test solutions at an application rate of 200 ppm. After drying, the leaf discs were infested with 5 L1 larvae. The samples were checked for mortality, feeding behaviour, and growth regulation 3 days after treatment (DAT). • The following compounds gave at least 80% control of Spodoptera littoralis: A1, A2, A3, A4, A5, A6, A10, A13, A17, A19. Heliothis virescens (Tobacco Budworm): • Eggs (0-24 h old) were placed in 24-well microtiter plate on artificial diet and treated with test solutions at an application rate of 200 ppm (concentration in well 18 ppm) by pipetting. After an incubation period of 4 days, samples were checked for egg mortality, larval mortality, and growth regulation. • The following compounds gave at least 80% control of Heliothis virescens: A1, A2, A3, A4, A5, A6, A7, A9, A10, A11, A12, A14, A17, A18, A19, A21. Plutella xylostella (Diamond Back Moth): • 24-well microtiter plate (MTP) with artificial diet was treated with test solutions at an application rate of 200 ppm (concentration in well 18 ppm) by pipetting. After drying, the MTP's were infested with L2 larvae (7-12 per well). After an incubation period of 6 days, samples were checked for larval mortality and growth regulation. • The following compounds gave at least 80% control of Plutella xylostella: A1, A2, A3, A5, A6, A7, A10, A17, A18, A19. Diabrotica balteata (Corn Root Worm): • A 24-well microtiter plate (MTP) with artificial diet was treated with test solutions at an application rate of 200 ppm (concentration in well 18 ppm) by pipetting. After drying, the MTP's were infested with L2 larvae (6-10 per well). After an incubation period of 5 days, samples were checked for larval mortality and growth regulation. • The following compounds gave at least 80% control of Diabrotica balteata: A1, A2, A3, A5, A15, A16, A18, A19."}, "[2]": {"tested_on": "Diabrotica balteata (Corn Root Worm)", "assay": "Diabrotica balteata larvae test on artificial diet", "details": "application rate 200 ppm (concentration in well 18 ppm), L2 larvae, larval mortality and growth regulation after 5 days"}, "[3]": {"tested_on": "Spodoptera littoralis (Egyptian Cotton Leafworm)", "assay": "Spodoptera littoralis cotton leaf disc spray test", "details": "application rate 200 ppm, sprayed cotton leaf discs, 5 L1 larvae, mortality, feeding behaviour and growth regulation 3 days after treatment", "protocol": "as §1\nSpodoptera littoralis (Egyptian Cotton Leafworm):\nas §2"}, "[4]": {"tested_on": "Plutella xylostella (Diamond Back Moth)", "assay": "Plutella xylostella larvae test on artificial diet", "details": "application rate 200 ppm (concentration in well 18 ppm), L2 larvae, larval mortality and growth regulation after 6 days", "protocol": "as §1, §2"}}, "note": "Some of these results come from one statement about several compounds together.", "data": [{"molecule": "Cc1cc(C2(C(F)(F)F)CC(c3ccc(Cl)cc3)=NO2)cc(C)c1NC(=O)c1ccc(C#N)c(NC(=O)c2ccc([N+](=O)[O-])cc2)c1", "note": "(stereo not shown) [A1, N-{4-[3-(4-chloro-phenyl)-5-trifluoromethyl-4,5-dihydro-isoxazol-5-yl]-2,6-dimethyl-phenyl}-4-cyano-3-(4-nitro-benzoylamino)-benzamide]", "values": [{"measurement": "control of Heliothis virescens", "setting": "[1]", "value": "at least 80%"}, {"measurement": "control of Diabrotica balteata", "setting": "[2]", "value": "at least 80%"}, {"measurement": "control of Spodoptera littoralis", "setting": "[3]", "value": "at least 80%"}, {"measurement": "control of Plutella xylostella", "setting": "[4]", "value": "at least 80%"}]}, {"molecule": "Cc1cc(C2(C(F)(F)F)CC(c3ccc(Cl)cc3)=NO2)cc(C)c1NC(=O)c1ccc(C#N)c(NC(=O)c2ccccc2)c1", "note": "(stereo not shown) [A2, N-{4-[3-(4-Chloro-phenyl)-5-trifluoromethyl-4,5-dihydro-isoxazol-5-yl]-2,6-dimethyl-phenyl}-4-cyano-3-(benzoylamino)-benzamide]", "values": [{"measurement": "control of Heliothis virescens", "setting": "[1]", "value": "at least 80%"}, {"measurement": "control of Diabrotica balteata", "setting": "[2]", "value": "at least 80%"}, {"measurement": "control of Spodoptera littoralis", "setting": "[3]", "value": "at least 80%"}, {"measurement": "control of Plutella xylostella", "setting": "[4]", "value": "at least 80%"}]}, {"molecule": "Cc1cc(C2(C(F)(F)F)CC(c3ccc(Cl)cc3)=NO2)cc(C)c1NC(=O)c1ccc(C#N)c(NC(=O)c2ccc(F)cc2)c1", "note": "(stereo not shown) [A3, N-{4-[3-(4-Chloro-phenyl)-5-trifluoromethyl-4,5-dihydro-isoxazol-5-yl]-2,6-dimethyl-phenyl}-4-cyano-3-(4-fluoro-benzoylamino)-benzamide]", "values": [{"measurement": "control of Heliothis virescens", "setting": "[1]", "value": "at least 80%"}, {"measurement": "control of Diabrotica balteata", "setting": "[2]", "value": "at least 80%"}, {"measurement": "control of Spodoptera littoralis", "setting": "[3]", "value": "at least 80%"}, {"measurement": "control of Plutella xylostella", "setting": "[4]", "value": "at least 80%"}]}, {"molecule": "Cc1cc(C2(C(F)(F)F)CC(c3ccc(Cl)cc3)=NO2)cc(C)c1NC(=O)c1ccc(C#N)c(NC(=O)c2ccc(C#N)cc2)c1", "note": "(stereo not shown) [A7]", "values": [{"measurement": "control of Heliothis virescens", "setting": "[1]", "value": "at least 80%"}, {"measurement": "control of Plutella xylostella", "setting": "[4]", "value": "at least 80%"}]}, {"molecule": "Cc1cc(C2(C(F)(F)F)CC(c3ccc(Cl)cc3)=NO2)cc(C)c1NC(=O)c1ccc(C#N)c(NC(=O)c2cc(Cl)ccc2F)c1", "note": "(stereo not shown) [A9]", "values": [{"measurement": "control of Heliothis virescens", "setting": "[1]", "value": "at least 80%"}]}, {"molecule": "Cc1cc(C2(C(F)(F)F)CC(c3ccc(Cl)cc3)=NO2)cc(C)c1NC(=O)c1ccc(C#N)c(NC(=O)c2ccc([N+](=O)[O-])cc2Cl)c1", "note": "(stereo not shown) [A10]", "values": [{"measurement": "control of Heliothis virescens", "setting": "[1]", "value": "at least 80%"}, {"measurement": "control of Spodoptera littoralis", "setting": "[3]", "value": "at least 80%"}, {"measurement": "control of Plutella xylostella", "setting": "[4]", "value": "at least 80%"}]}, {"molecule": "Cc1cc(C2(C(F)(F)F)CC(c3ccc(Cl)cc3)=NO2)cc(C)c1NC(=O)c1ccc(C#N)c(NC(=O)c2ccc(OC(F)(F)F)cc2)c1", "note": "(stereo not shown) [A12]", "values": [{"measurement": "control of Heliothis virescens", "setting": "[1]", "value": "at least 80%"}]}, {"molecule": "Cc1cc(C2(C(F)(F)F)CC(c3ccc(Cl)cc3)=NO2)cc(C)c1NC(=O)c1ccc(C#N)c(NC(=O)c2ccc(F)c(C(F)(F)F)c2)c1", "note": "(stereo not shown) [A13]", "values": [{"measurement": "control of Spodoptera littoralis", "setting": "[3]", "value": "at least 80%"}]}, {"molecule": "Cc1cc(C2(C(F)(F)F)CC(c3ccc(Cl)cc3)=NO2)cc(C)c1NC(=O)c1ccc(C#N)c(NC(=O)c2ccc(C(F)(F)F)cc2)c1", "note": "(stereo not shown) [A14]", "values": [{"measurement": "control of Heliothis virescens", "setting": "[1]", "value": "at least 80%"}]}, {"molecule": "Cc1cc(C2(C(F)(F)F)CC(c3ccc(Cl)cc3)=NO2)cc(C)c1NC(=O)c1ccc(C#N)c(NC(=O)c2ccccc2OC(F)(F)F)c1", "note": "(stereo not shown) [A15]", "values": [{"measurement": "control of Diabrotica balteata", "setting": "[2]", "value": "at least 80%"}]}, {"molecule": "Cc1cc(C2(C(F)(F)F)CC(c3ccc(Cl)cc3)=NO2)cc(C)c1NC(=O)c1ccc(C#N)c(NC(=O)c2ccccc2C(F)(F)F)c1", "note": "(stereo not shown) [A16]", "values": [{"measurement": "control of Diabrotica balteata", "setting": "[2]", "value": "at least 80%"}]}, {"molecule": "Cc1cc(C2(C(F)(F)F)CC(c3ccc(Cl)cc3)=NO2)cc(C)c1NC(=O)c1ccc(C#N)c(NC(=O)c2ccc(F)cc2Cl)c1", "note": "(stereo not shown) [A17]", "values": [{"measurement": "control of Heliothis virescens", "setting": "[1]", "value": "at least 80%"}, {"measurement": "control of Spodoptera littoralis", "setting": "[3]", "value": "at least 80%"}, {"measurement": "control of Plutella xylostella", "setting": "[4]", "value": "at least 80%"}]}, {"molecule": "Cc1cc(C2(C(F)(F)F)CC(c3ccc(Cl)cc3)=NO2)cc(C)c1NC(=O)c1ccc(C#N)c(NC(=O)c2cccc(F)c2F)c1", "note": "(stereo not shown) [A19]", "values": [{"measurement": "control of Heliothis virescens", "setting": "[1]", "value": "at least 80%"}, {"measurement": "control of Diabrotica balteata", "setting": "[2]", "value": "at least 80%"}, {"measurement": "control of Spodoptera littoralis", "setting": "[3]", "value": "at least 80%"}, {"measurement": "control of Plutella xylostella", "setting": "[4]", "value": "at least 80%"}]}, {"molecule": "Cc1cc(C2(C(F)(F)F)CC(c3ccc(Cl)cc3)=NO2)cc(C)c1NC(=O)c1ccc(C#N)c(NC(=O)c2cc(C(F)(F)F)ccc2F)c1", "note": "(stereo not shown) [A21]", "values": [{"measurement": "control of Heliothis virescens", "setting": "[1]", "value": "at least 80%"}]}]}
